PubChem BioAssay AID1159590 – NIAID | 2016

- Test: 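Effect of gene knock-down on p65 moving into nuclei after TLR2 stimulation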
- Cell system: mouse RAW264.7 macrophage reporter cells expressing GFP-p65 and a Tnf promoter-mCherry
- Reagents: single siRNA against mouse genes
- Timing: 48 to 72 hours after siRNA transfection, then 40 minutes of ligand
- Conditions: Pam3CSK4 (TLR2/1 agonist) for 40 minutes before fixation; dose not given
- Read-out: 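p65 nuclear translocation measured by high-content imaging, shown for each siRNA as a robust z-score averaged across replicates, relative to negative controls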
- Scale: p65 nuclear entry z-score: higher = more p65 moved into nuclei than in negative-control wells
- Hit rule: In these data the active calls have p65 nuclear entry z-score, replicate mean at about -1.5 or lower, or at about 1.5 or higher
- Calls: active = strong change, up or down; inactive = little change
The deposit covers 756 reagents; this is a random part of them. 128 of all reagents (17%) count as active. 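Calls are two-sided: both reduced and increased p65 nuclear entry count as active.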 Reagents against one gene are numbered here. Not stated in the record: the amount of reagent.

| gene symbol | reagent | p65 nuclear entry z-score, replicate mean | Outcome |
| --- | --- | --- | --- |
| Ifnar2 | 1 | 2.14 | active |
| Ifnar2 | 2 | -0.324 | inactive |
| Ifnar2 | 3 | 0.647 | inactive |
| Ifnar2 | 4 | 1.83 | active |
| Ifnar2 | 5 | 0.0594 | inactive |
| Ifnar2 | 6 | 3.33 | active |
| Tnf | 1 | -1.28 | inactive |
| Tnf | 2 | -1.07 | inactive |
| Tnf | 3 | -0.922 | inactive |
| Tnf | 4 | -2.11 | active |
| Tnf | 5 | -1.74 | active |
| Tnf | 6 | -0.185 | inactive |
| Akt2 | 1 | -0.977 | inactive |
| Akt2 | 2 | 0.447 | inactive |
| Akt2 | 3 | 0.0604 | inactive |
| Akt2 | 4 | 1.78 | active |
| Akt2 | 5 | 7.87 | active |
| Akt2 | 6 | 2.05 | active |
| Tab3 | 1 | -0.415 | inactive |
| Tab3 | 2 | -1.14 | inactive |
| Tab3 | 3 | -0.595 | inactive |
| Tab3 | 4 | 0.105 | inactive |
| Tab3 | 5 | 0.279 | inactive |
| Tab3 | 6 | -0.337 | inactive |
| Tlr8 | 1 | -0.686 | inactive |
| Tlr8 | 2 | 0.409 | inactive |
| Tlr8 | 3 | -0.082 | inactive |
| Tlr8 | 4 | 0.0731 | inactive |
| Tlr8 | 5 | -1.3 | inactive |
| Tlr8 | 6 | 1.78 | active |
| Ifnb1 | 1 | 1.7 | active |
| Ifnb1 | 2 | 0.296 | inactive |
| Ifnb1 | 3 | -1.55 | active |
| Ifnb1 | 4 | 0.676 | inactive |
| Ifnb1 | 5 | -0.894 | inactive |
| Ifnb1 | 6 | -0.426 | inactive |
| Pik3cb | 1 | 0.976 | inactive |
| Pik3cb | 2 | -1.71 | active |
| Pik3cb | 3 | -1.12 | inactive |
| Pik3cb | 4 | 0.451 | inactive |
| Pik3cb | 5 | 0.988 | inactive |
| Pik3cb | 6 | -0.307 | inactive |
| Mapk3 | 1 | -1.34 | inactive |
| Mapk3 | 2 | 1.12 | inactive |
| Mapk3 | 3 | -0.11 | inactive |
| Mapk3 | 4 | -0.962 | inactive |
| Mapk3 | 5 | -1.13 | inactive |
| Mapk3 | 6 | -0.936 | inactive |
| Map2k6 | 1 | -1.55 | active |
| Map2k6 | 2 | -1.3 | inactive |
| Map2k6 | 3 | -0.103 | inactive |
| Map2k6 | 4 | -0.564 | inactive |
| Map2k6 | 5 | 1.07 | inactive |
| Map2k6 | 6 | 0.215 | inactive |
| Otud5 | 1 | -0.907 | inactive |
| Otud5 | 2 | 1.82 | active |
| Otud5 | 3 | 0.124 | inactive |
| Otud5 | 4 | -0.114 | inactive |
| Otud5 | 5 | 0.623 | inactive |
| Otud5 | 6 | 2.23 | active |
| Ube2n | 1 | -0.136 | inactive |
| Ube2n | 2 | -0.409 | inactive |
| Ube2n | 3 | 0.209 | inactive |
| Ube2n | 4 | 0.5 | inactive |
| Ube2n | 5 | -0.726 | inactive |
| Ube2n | 6 | 0.844 | inactive |
| Irak3 | 1 | -0.533 | inactive |
| Irak3 | 2 | 0.0167 | inactive |
| Irak3 | 3 | -1.4 | inactive |
| Irak3 | 4 | -1.12 | inactive |
| Irak3 | 5 | 0.68 | inactive |
| Irak3 | 6 | -1.66 | active |
| Dusp1 | 1 | 0.375 | inactive |
| Dusp1 | 2 | 0.0217 | inactive |
| Dusp1 | 3 | 0.0326 | inactive |
| Dusp1 | 4 | 1.24 | inactive |
| Dusp1 | 5 | -0.978 | inactive |
| Dusp1 | 6 | -0.858 | inactive |

An excerpt from the list above, as a working copy:
| gene symbol | reagent | p65 nuclear entry z-score, replicate mean | Outcome |
| --- | --- | --- | --- |
| Ube2n | 3 | 0.209 | inactive |
| Ube2n | 4 | 0.5 | inactive |
| Ube2n | 5 | -0.726 | inactive |
| Ube2n | 6 | 0.844 | inactive |
| Irak3 | 1 | -0.533 | inactive |
| Irak3 | 2 | 0.0167 | inactive |
| Irak3 | 3 | -1.4 | inactive |
| Irak3 | 4 | -1.12 | inactive |
| Irak3 | 5 | 0.68 | inactive |
